In the supplement of paper PMC10849652:
The list shows a part of the results.

Amino acid sequences for entries named in this document (tags omitted). A change or cut given only in a name is not applied to a line headed by its entry.
UniProt P07954: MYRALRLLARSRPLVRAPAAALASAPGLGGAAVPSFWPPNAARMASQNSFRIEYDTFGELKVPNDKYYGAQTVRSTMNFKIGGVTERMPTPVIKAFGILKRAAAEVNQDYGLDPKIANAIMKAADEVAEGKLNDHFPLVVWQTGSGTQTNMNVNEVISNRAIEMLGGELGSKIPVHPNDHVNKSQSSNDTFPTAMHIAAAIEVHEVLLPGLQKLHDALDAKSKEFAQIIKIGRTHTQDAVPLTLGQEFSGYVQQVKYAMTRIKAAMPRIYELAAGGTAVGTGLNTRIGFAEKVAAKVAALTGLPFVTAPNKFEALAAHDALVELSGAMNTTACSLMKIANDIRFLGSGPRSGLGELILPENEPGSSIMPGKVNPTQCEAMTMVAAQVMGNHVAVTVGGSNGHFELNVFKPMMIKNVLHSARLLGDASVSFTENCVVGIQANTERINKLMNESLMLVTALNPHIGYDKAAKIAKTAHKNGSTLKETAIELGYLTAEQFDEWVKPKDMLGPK
UniProt Q9Y3D6: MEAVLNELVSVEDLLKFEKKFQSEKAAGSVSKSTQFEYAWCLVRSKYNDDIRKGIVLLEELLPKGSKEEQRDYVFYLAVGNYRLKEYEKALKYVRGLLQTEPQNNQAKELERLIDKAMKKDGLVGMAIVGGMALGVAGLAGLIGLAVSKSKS
UniProt Q9NRD1: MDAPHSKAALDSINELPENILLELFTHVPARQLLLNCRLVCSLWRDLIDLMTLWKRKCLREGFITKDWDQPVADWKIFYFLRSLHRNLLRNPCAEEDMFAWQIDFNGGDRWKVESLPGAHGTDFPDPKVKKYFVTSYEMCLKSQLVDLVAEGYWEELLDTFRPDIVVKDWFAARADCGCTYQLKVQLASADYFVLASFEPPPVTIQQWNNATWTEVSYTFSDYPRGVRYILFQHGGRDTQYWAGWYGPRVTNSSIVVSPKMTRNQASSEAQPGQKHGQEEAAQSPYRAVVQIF
UniProt P26885: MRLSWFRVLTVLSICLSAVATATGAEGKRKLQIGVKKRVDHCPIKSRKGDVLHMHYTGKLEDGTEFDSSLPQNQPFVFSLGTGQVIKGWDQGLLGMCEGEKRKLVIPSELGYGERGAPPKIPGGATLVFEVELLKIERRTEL
UniProt Q9UKT8: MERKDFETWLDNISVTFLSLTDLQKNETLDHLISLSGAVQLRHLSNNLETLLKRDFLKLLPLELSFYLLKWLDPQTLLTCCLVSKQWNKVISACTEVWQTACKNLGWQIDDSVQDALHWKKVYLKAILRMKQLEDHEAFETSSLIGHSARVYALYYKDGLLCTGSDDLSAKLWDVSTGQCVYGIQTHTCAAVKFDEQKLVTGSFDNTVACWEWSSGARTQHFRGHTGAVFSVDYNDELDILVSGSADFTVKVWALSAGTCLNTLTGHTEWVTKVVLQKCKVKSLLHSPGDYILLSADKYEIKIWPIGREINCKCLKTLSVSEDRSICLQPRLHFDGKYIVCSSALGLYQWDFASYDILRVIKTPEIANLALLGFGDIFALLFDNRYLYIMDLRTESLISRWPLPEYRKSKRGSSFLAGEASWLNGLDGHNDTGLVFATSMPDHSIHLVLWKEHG
UniProt O95684: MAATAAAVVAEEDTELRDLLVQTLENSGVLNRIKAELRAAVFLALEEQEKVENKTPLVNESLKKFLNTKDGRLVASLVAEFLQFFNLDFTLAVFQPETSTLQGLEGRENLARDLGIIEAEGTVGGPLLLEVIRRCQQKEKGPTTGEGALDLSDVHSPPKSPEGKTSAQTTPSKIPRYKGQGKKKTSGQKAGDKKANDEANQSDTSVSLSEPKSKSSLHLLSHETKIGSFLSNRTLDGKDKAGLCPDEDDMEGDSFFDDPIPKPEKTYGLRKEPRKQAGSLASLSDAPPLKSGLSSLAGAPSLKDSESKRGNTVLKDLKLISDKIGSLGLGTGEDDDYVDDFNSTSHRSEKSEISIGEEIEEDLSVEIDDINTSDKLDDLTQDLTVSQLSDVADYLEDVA
UniProt P49327, whole entry, looked up: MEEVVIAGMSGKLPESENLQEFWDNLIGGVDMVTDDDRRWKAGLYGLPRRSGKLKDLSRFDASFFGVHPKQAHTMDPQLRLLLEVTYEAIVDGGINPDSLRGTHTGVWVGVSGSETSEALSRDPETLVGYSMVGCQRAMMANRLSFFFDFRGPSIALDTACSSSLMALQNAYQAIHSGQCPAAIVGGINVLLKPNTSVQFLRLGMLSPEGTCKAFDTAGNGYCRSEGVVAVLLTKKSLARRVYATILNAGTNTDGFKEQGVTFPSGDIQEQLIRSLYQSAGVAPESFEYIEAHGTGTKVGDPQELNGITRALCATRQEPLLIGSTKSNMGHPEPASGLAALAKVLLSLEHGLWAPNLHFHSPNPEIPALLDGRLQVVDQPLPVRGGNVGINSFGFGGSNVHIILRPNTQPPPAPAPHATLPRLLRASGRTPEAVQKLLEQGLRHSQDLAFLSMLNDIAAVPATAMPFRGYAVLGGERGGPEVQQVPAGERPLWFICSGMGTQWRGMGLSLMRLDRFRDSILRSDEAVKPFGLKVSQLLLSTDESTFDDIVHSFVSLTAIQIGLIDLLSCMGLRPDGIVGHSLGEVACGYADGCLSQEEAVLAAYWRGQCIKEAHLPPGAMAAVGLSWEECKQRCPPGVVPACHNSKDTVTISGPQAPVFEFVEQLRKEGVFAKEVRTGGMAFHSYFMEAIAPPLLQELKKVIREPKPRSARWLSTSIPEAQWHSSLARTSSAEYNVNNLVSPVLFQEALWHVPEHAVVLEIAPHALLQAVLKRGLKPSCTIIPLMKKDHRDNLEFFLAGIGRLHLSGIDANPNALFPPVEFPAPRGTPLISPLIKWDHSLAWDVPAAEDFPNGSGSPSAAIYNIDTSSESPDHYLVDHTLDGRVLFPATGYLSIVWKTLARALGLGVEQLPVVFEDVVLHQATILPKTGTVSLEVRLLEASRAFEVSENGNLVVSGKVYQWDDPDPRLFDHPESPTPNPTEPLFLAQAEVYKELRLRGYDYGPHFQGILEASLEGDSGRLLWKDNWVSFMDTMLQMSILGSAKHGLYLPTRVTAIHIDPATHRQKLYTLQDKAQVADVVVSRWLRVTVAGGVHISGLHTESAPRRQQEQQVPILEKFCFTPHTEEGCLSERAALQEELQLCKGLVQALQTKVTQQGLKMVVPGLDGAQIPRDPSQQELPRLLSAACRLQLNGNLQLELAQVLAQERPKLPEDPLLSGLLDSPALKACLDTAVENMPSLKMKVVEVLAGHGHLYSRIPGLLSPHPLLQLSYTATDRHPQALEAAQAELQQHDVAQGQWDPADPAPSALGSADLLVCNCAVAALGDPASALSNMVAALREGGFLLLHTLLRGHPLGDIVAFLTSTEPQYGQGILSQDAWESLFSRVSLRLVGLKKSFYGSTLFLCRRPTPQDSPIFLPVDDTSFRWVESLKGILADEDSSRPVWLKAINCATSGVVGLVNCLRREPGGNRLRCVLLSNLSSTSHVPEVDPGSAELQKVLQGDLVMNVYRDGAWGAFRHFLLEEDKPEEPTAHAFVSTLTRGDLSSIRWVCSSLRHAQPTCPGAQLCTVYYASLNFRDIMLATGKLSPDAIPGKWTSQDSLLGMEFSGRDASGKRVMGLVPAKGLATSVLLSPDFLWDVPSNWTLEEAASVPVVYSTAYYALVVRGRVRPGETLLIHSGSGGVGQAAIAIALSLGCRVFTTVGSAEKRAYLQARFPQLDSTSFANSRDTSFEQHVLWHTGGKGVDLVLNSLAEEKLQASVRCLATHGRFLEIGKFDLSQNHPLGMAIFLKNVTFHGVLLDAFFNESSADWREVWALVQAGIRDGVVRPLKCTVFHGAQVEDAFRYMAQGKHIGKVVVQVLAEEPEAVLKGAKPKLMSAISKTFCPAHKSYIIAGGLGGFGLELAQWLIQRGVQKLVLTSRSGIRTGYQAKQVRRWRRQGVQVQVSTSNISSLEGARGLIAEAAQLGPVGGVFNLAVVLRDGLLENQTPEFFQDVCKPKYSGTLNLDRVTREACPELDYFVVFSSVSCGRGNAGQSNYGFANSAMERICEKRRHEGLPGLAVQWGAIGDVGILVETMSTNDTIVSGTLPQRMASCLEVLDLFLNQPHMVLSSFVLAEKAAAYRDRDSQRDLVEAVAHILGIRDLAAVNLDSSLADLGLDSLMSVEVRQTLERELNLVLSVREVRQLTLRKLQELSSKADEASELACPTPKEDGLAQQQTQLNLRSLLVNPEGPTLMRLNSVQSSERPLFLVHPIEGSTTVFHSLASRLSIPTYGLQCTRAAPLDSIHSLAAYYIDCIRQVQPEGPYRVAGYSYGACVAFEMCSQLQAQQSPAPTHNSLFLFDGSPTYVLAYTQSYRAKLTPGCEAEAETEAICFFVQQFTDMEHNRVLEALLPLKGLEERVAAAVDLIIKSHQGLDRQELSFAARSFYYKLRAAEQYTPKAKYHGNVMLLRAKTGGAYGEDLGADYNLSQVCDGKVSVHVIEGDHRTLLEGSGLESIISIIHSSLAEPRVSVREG
UniProt Q8TB52: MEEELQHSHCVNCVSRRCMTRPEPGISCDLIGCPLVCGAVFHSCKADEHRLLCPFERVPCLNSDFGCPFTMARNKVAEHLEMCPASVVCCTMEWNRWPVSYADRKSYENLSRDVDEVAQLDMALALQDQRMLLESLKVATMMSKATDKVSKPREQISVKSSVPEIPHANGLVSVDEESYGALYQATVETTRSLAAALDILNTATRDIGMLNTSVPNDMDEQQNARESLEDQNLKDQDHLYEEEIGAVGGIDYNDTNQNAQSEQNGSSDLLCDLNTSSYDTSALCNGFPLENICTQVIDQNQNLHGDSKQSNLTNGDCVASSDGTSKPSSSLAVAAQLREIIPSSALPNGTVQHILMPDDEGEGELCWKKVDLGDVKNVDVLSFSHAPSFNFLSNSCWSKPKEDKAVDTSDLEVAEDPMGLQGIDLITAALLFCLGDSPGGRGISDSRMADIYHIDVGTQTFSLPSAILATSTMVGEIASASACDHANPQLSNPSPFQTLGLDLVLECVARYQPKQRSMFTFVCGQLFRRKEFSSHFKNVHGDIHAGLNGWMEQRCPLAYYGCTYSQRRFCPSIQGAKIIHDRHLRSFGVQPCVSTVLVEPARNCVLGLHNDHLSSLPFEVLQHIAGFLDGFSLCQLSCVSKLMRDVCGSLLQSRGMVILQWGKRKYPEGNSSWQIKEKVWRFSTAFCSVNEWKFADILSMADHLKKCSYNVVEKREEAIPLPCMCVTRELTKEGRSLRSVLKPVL
UniProt Q9UBU6: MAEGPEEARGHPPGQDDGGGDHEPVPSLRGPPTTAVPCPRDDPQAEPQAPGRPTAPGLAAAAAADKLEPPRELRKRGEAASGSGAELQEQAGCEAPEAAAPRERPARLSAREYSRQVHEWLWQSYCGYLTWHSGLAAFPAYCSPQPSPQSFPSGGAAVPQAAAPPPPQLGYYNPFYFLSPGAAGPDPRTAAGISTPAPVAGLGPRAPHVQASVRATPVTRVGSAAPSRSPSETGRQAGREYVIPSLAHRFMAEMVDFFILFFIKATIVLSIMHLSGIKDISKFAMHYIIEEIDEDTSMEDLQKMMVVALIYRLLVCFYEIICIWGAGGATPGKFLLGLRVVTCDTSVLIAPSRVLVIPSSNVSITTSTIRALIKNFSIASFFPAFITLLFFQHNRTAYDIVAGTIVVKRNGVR
UniProt Q9NVK5: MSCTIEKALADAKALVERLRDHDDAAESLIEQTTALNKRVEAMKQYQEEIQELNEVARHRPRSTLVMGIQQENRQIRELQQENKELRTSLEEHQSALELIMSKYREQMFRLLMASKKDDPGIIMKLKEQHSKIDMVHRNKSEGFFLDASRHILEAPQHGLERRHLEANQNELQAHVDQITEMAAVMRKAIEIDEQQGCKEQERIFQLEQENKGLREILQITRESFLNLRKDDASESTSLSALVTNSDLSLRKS
UniProt O75955: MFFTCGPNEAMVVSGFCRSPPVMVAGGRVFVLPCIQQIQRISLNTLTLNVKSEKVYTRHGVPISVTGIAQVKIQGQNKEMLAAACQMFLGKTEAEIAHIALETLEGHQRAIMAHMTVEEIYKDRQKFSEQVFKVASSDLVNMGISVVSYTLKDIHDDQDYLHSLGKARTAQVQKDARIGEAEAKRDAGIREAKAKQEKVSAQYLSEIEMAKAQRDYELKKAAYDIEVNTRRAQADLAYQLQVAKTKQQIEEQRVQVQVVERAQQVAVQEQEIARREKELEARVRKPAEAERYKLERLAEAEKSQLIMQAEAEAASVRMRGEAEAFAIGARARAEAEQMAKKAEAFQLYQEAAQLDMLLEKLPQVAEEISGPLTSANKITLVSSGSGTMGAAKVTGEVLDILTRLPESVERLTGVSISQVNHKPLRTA
UniProt P0C2W1: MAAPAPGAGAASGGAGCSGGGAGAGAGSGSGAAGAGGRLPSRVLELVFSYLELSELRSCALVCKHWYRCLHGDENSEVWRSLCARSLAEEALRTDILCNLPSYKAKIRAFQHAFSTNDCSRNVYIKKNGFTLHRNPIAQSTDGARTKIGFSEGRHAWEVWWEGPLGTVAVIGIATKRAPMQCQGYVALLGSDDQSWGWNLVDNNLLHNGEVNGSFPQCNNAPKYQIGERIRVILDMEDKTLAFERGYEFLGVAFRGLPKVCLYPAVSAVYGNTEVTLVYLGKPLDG

Assays:
Experiment in all cases: log2 fold change, soluble protein after heating vs DMSO (PISA); higher = thermal stabilisation; K562 lysate, 10 uM; active = over 0.2 and 3.5 SD of the protein, either way, in both replicates (recomputed)
[1] = compound: C1=CC=C(C=C1)[C@H](COC2=CC3=C(C=C2)NC(=O)N3)NC(=O)C4=CC=CN(C4=O)CC5=CC(=C(C=C5)F)F
Outline: (§1)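 Pellets of K562 cells were dounce-homogenised in PBS pH 7.4 with 1 mM MgCl2, and the crude extract was held at 1 mg/mL protein for a 30 min treatment with 10 μM compound. Aliquots were heated for 3 min over 48°C-58°C and pooled before NP-40 was added to 0.5% at 4°C. The supernatant from 21,000xg for 90 min was quantified by TMTpro 16plex LC-MS/MS with channel sums equalised. Values are reported from duplicates as log-two fold change in thermal stability relative to solvent controls.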

[2] = compound: CC1=C(SC2=C1C(=N[C@H](C3=NN=C(N32)C)CC(=O)N)C4=CC=C(C=C4)Cl)C
Outline: as §1

[3] = compound: CC1=C2C(=CC=C1)N=C(N(C2=O)C3=CC=CC=C3C)CN4C=NC5=C(N=CN=C54)N
Outline: as §1

[4] = compound: Cc1sc2c(c1C)C(c1ccc(Cl)cc1)=N[C@@H](CC(=O)OC(C)(C)C)c1nnc(C)n1-2
Outline: as §1

[5] = compound: c1ccc([C@@H]2C[C@H]2NC2CCNCC2)cc1
Outline: as §1

Measured: log2 fold change

FH (UniProt P07954)
inactive: [1] -0.004 | [2] 0.031 | [3] 0.017 | [4] 0.044 | [5] 0.058

FLNA (UniProt P21333)
inactive: [1] -0.004 | [2] 0.006 | [3] -0.004 | [4] -0.024 | [5] -0.053

FARSB (UniProt Q9NSD9)
inactive: [1] -0.014 | [2] 0.036 | [3] -0.004 | [4] 0.02 | [5] 0.052

FAM91A1 (UniProt Q658Y4)
inactive: [1] 0.014 | [2] -0.011 | [3] -0.025 | [4] -0.005 | [5] 0.042

FLCN (UniProt Q8NFG4)
inactive: [1] -0.007 | [2] 0.081 | [3] -0.004 | [4] 0.018 | [5] -0.033

FIBP (UniProt O43427)
inactive: [1] -0.018 | [2] 0 | [3] -0.044 | [4] -0.027 | [5] -0.002

FIS1 (UniProt Q9Y3D6)
inactive: [1] 0.061 | [2] -0.002 | [3] -0.03 | [4] -0.017 | [5] 0.013

FCGR2A (UniProt P12318)
inactive: [1] 0.024 | [2] 0.013 | [3] 0.017 | [4] -0.018 | [5] -0.05

FDPS (UniProt P14324)
inactive: [1] -0.02 | [2] 0.055 | [3] 0.029 | [4] 0.015 | [5] 0.03

FBXO6 (UniProt Q9NRD1)
inactive: [1] 0.042 | [2] -0.022 | [3] 0.037 | [4] -0.023 | [5] 0.019

FCHO1 (UniProt O14526)
inactive: [1] -0.026 | [2] 0.066 | [3] -0.025 | [4] 0.009 | [5] 0.027

FKBP7 (UniProt Q9Y680)
inactive: [1] 0.015 | [2] 0.026 | [3] -0.026 | [4] -0.012 | [5] -0.002

FCHO2 (UniProt Q0JRZ9)
inactive: [1] 0.033 | [2] 0.011 | [3] -0.062 | [4] 0.028 | [5] 0.057

FKBP2 (UniProt P26885)
inactive: [1] 0.028 | [2] -0.016 | [3] -0.021 | [4] 0.011 | [5] -0.041

FBXW2 (UniProt Q9UKT8)
inactive: [1] -0.038 | [2] 0.068 | [3] -0.05 | [4] 0.05 | [5] 0.079

FBRS (UniProt J3KNZ9)
inactive: [1] -0.1 | [2] 0.057 | [3] 0.001 | [4] -0.019 | [5] -0.006

FANCI (UniProt Q9NVI1)
inactive: [1] -0.051 | [2] -0.009 | [3] 0.029 | [4] 0.015 | [5] 0.088

FHL2 (UniProt Q14192)
inactive: [1] 0.071 | [2] -0.006 | [3] 0.026 | [4] 0.009 | [5] -0.086

FAM98C (UniProt Q17RN3)
inactive: [1] 0.049 | [2] -0.129 | [3] -0.066 | [4] -0.25 | [5] 0.001

FNTA (UniProt P49354)
inactive: [1] -0.059 | [2] 0.144 | [3] 0.016 | [4] 0.035 | [5] 0.002

FGFR1OP (UniProt O95684)
inactive: [1] 0.013 | [2] 0.026 | [3] 0.004 | [4] -0.03 | [5] 0.002

FGD6 (UniProt Q6ZV73)
inactive: [1] -0.595 | [2] 0.057 | [3] -0.768 | [4] 0.036 | [5] -0.001

FMNL1 isoform 3 (UniProt O95466)
inactive: [1] 0.104 | [2] -0.01 | [3] 0.057 | [4] 0.027 | [5] 0.082

FKBP15 (UniProt Q5T1M5)
inactive: [1] 0.013 | [2] -0.001 | [3] 0.023 | [4] -0.022 | [5] -0.03

FASN (UniProt P49327)
inactive: [1] -0.009 | [2] 0.027 | [3] -0.003 | [4] 0.024 | [5] 0.031

FGF2 (UniProt P09038)
inactive: [1] -0.039 | [2] -0.132 | [3] 0.015 | [4] 0.017 | [5] -0.021

FBXO7 (UniProt Q9Y3I1)
inactive: [1] -0.023 | [2] -0.026 | [3] 0.049 | [4] 0.032 | [5] -0.066

FBXO30 (UniProt Q8TB52)
inactive: [1] -0.034 | [2] 0.011 | [3] -0.041 | [4] 0.036 | [5] 0.12

FBXO22 (UniProt Q8NEZ5)
inactive: [1] -0.007 | [2] -0.004 | [3] 0.03 | [4] 0.02 | [5] 0.083

FAM98B (UniProt Q52LJ0)
inactive: [1] 0.012 | [2] 0.004 | [3] 0.015 | [4] 0.042 | [5] 0.028

FHOD1 (UniProt Q9Y613)
inactive: [1] -0.041 | [2] 0.006 | [3] 0.043 | [4] 0.029 | [5] 0.027

Fetched one by one from above, 2 records:
FBXO30 (UniProt Q8TB52)
inactive: [1] -0.034 | [2] 0.011 | [3] -0.041 | [4] 0.036 | [5] 0.12

FAM98B (UniProt Q52LJ0)
inactive: [1] 0.012 | [2] 0.004 | [3] 0.015 | [4] 0.042 | [5] 0.028

The listing continues.

FNBP4 isoform 2 (UniProt Q8N3X1)
inactive: [1] 0.01 | [2] -0.015 | [3] 0.006 | [4] -0.016 | [5] -0.003

FBXO42 (UniProt Q6P3S6)
inactive: [1] 0.079 | [2] -0.02 | [3] 0.011 | [4] 0.207 | [5] -0.027

FAM89A (UniProt Q96GI7)
inactive: [1] 0.104 | [2] 0.038 | [3] -0.102 | [4] -0.007 | [5] 0.012

FER (UniProt P16591)
inactive: [1] -0.024 | [2] 0.05 | [3] -0.057 | [4] -0.015 | [5] -0.093

FAM8A1 (UniProt Q9UBU6)
inactive: [1] -0.073 | [2] -0.023 | [3] -0.012 | [4] -0.046 | [5] 0.087

FAR1 (UniProt Q8WVX9)
inactive: [1] -0.262 | [2] 0.005 | [3] -0.017 | [4] 0.011 | [5] 0

FN3KRP (UniProt Q9HA64)
inactive: [1] 0.047 | [2] 0.021 | [3] -0.08 | [4] -0.002 | [5] 0.007

FMC1 (UniProt Q96HJ9)
inactive: [1] -0.072 | [2] -0.112 | [3] -0.006 | [4] 0.065 | [5] 0.032

FERMT3 (UniProt Q86UX7)
inactive: [1] -0.012 | [2] 0.012 | [3] 0.009 | [4] -0.01 | [5] -0.016

FOPNL (UniProt Q96NB1)
inactive: [1] -0.005 | [2] -0.078 | [3] -0.072 | [4] -0.019 | [5] 0.068

FGFR1OP2 (UniProt Q9NVK5)
inactive: [1] 0.063 | [2] -0.001 | [3] 0.068 | [4] -0.038 | [5] -0.024

FLNB isoform 8 (UniProt O75369)
inactive: [1] -0.002 | [2] 0.018 | [3] -0.023 | [4] -0.017 | [5] -0.025

FMR1 (UniProt Q06787)
inactive: [1] -0.04 | [2] 0.05 | [3] -0.004 | [4] -0.017 | [5] -0.067

FNTB (UniProt P49356)
inactive: [1] 0.023 | [2] 0.135 | [3] 0.015 | [4] -0.008 | [5] 0.038

FAT2 (UniProt Q9NYQ8)
inactive: [1] -0.009 | [2] 0.092 | [3] 0.104 | [5] -0.161

FLOT1 (UniProt O75955)
inactive: [1] 0.012 | [2] 0.01 | [3] 0.038 | [4] -0.008 | [5] 0.015

FBLN1 (UniProt P23142)
inactive: [1] -0.023 | [2] 0.068 | [3] 0.026 | [5] -0.134

FHL3 (UniProt Q13643)
inactive: [1] 0.083 | [2] -0.034 | [3] -0.008 | [4] -0.014 | [5] -0.033

FMR1 isoform 9 (UniProt Q06787)
inactive: [1] -0.303 | [2] -0.096 | [4] 0.282

FBXO45 (UniProt P0C2W1)
inactive: [1] -0.079 | [2] -0.177 | [3] -0.004 | [5] 0.053

FIG4 (UniProt Q92562)
inactive: [1] -0.107 | [2] -0.108 | [3] 0.037 | [4] 0.039 | [5] -0.037

FECH isoform 2 (UniProt P22830)
inactive: [1] 0.06 | [2] -0.101 | [3] -0.126 | [4] -0.229 | [5] -0.092

FN3K (UniProt Q9H479)
inactive: [1] 0.023 | [2] 0.015 | [3] 0.029 | [4] -0.023 | [5] 0.038
